Where a chain is given by its changes, count along the chain named. Where two headings read alike, the source gives them in different places. No constants are given. Whether binding was seen depends on the method and setting. For some of these results: In cells and extracts the contact can be indirect. Some entries that bind do so weakly or less than the wild type. For some of these results: Tags and fused reporters may be left off the sequences shown.

The chains behind the UniProt entries cited, without tags or fusion partners. Where a name states a change or a piece, a line headed by the entry shows the natural chain unless it says otherwise.
UniProt Q14691: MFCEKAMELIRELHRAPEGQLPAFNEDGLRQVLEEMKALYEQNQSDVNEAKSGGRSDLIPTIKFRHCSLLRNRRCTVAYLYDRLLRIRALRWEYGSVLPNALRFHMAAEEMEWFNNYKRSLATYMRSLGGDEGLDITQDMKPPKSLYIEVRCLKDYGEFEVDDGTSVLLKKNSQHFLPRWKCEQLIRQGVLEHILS
UniProt P12004: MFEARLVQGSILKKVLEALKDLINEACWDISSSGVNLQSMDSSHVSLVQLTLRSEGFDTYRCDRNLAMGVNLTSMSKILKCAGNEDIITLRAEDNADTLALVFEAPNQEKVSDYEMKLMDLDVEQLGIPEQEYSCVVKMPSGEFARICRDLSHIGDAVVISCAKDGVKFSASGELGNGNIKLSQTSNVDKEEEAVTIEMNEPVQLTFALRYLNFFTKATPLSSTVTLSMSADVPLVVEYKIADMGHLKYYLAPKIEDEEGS

Assay [1] concerns the target T1, human DONSON WT, GFP-tagged (second copy FLAG-tagged) (human) (UniProt Q9NYP3).
T1 sequence: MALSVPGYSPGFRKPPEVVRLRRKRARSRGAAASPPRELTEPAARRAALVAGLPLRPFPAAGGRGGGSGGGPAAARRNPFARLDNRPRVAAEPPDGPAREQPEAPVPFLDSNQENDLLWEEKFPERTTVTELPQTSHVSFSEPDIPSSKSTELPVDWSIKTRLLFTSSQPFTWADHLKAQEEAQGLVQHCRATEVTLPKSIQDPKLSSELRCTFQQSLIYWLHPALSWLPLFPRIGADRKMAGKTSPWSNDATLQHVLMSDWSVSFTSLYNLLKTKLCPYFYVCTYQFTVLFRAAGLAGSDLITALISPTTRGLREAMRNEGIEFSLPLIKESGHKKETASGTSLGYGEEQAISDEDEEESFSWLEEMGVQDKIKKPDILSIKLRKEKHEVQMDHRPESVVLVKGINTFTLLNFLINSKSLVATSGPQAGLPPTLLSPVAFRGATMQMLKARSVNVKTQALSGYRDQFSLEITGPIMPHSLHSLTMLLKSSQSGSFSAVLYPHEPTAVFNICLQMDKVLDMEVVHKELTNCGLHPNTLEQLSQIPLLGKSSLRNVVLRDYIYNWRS
Briefly: co-IP; 293FT cells transfected with GFP-tagged (and FLAG-tagged) DONSON, lysed with 0.5-1% NP40 and benzonase; GFP-DONSON captured on GFP-Trap agarose beads 5 h at 4°C, washed with 100-300 mM NaCl; blots for FLAG, GINS, MCM2, PCNA.

Assay [2] addresses T2, human DONSON Met446Thr, GFP-tagged (second copy FLAG-tagged) (human) (UniProt Q9NYP3).
T2 sequence: T1 sequence with M446T
Described as above.

Assay [3] has as its target T3, human DONSON Trp228Leu, GFP-tagged (second copy FLAG-tagged) (human) (UniProt Q9NYP3).
T3 sequence: T1 sequence with W228L
Described as above.

Assay [4] concerns the target T1, human DONSON WT, GFP-tagged (second copy FLAG-tagged) (human). Described as above. The source holds these as a separate data set.
In assay [5] the target is T4, Mcm3, endogenous in Xenopus laevis egg extract (Xenopus laevis (endogenous in egg extract)) (UniProt P49739).
T4 sequence: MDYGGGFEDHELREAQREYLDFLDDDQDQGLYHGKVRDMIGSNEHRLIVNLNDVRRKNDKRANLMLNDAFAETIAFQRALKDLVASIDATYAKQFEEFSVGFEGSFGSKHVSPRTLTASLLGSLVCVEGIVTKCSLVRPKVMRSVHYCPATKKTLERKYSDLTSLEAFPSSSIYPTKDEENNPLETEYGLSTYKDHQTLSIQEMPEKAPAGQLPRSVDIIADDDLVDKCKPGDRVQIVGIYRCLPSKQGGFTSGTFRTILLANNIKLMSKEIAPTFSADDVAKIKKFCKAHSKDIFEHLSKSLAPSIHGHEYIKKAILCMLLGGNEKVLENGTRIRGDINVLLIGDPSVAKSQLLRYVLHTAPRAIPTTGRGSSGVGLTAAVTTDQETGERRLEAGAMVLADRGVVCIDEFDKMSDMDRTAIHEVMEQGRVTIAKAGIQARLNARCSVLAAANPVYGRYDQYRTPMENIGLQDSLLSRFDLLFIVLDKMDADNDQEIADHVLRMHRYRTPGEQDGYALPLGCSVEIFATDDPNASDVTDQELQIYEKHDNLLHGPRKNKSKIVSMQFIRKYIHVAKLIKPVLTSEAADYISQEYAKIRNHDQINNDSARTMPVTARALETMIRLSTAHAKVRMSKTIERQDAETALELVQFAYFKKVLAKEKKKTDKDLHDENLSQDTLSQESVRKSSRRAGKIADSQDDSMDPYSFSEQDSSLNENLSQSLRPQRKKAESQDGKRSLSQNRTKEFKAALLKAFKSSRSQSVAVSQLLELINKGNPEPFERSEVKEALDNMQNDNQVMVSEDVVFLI
Kind of assay: cryo-EM structure; dCMGDo (double CMG-DONSON, 24-mer) in the 3xFLAG-peptide eluate of the Cdc45-TEV-His10-FLAG5 immunoprecipitation from benzonase-digested chromatin; graphene oxide grids; no DNA in the complex; C2 symmetry.

In assay [6] the target is T5, Sld5 (GINS subunit), endogenous in Xenopus laevis egg extract (Xenopus laevis (endogenous in egg extract)) (UniProt Q7ZT48).
T5 sequence: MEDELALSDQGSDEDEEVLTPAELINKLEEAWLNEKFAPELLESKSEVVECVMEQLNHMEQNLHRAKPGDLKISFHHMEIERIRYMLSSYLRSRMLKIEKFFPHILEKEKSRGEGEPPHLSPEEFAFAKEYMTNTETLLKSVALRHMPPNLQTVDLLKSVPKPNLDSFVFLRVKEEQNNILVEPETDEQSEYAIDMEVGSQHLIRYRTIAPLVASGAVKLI
Described as above.

The target of assay [7] is T6, Mcm3, endogenous in Xenopus laevis egg extract (Xenopus laevis (endogenous in egg extract)), P49739.
T6 chain: T4 sequence
The assay is described as above. The conditions noted are these: remark: other sources report otherwise.

Turning to “GINS complex, endogenous in 293FT cells (from UniProt Q14691 1-196; Q9Y248 1-185; Q9BRX5 1-216; Q9BRT9 1-223)”, the binding result in assay [1], in assay [2] and in assay [3] was “binds” throughout. Take “PCNA (proliferating cell nuclear antigen), endogenous in 293FT cells (from UniProt P12004 1-261)”: the binding entry in assay [1], in assay [2] and in assay [3] was “binds” in each case.

B1: human DONSON WT, GFP-tagged (second copy FLAG-tagged) (protein, UniProt Q9NYP3 1-566)
chain: T1 sequence
As for B1, in assay [4], the binding result is listed as “binds”.

B2: Psf3 (GINS subunit), endogenous in Xenopus laevis egg extract (protein, UniProt Q7ZT01 1-210)
chain: MWEPYMPVEPGLGREENFLSLEDLLMSQEKLPCCIESGFPRLGFLDKGGDSDSIPEGSKMELPLWLAKGLYDNKRRVLSVELPKIYREGWRTVFSADANVVDLHKMGPHYYGFGSQLLNFDSPENPEIAKTILQTFVGRFRRIMDSSQNAYNEDTSGLVARLDELERSLFRAGQRGLNAFQSWERGKAAQITASNLVQNYKKRKFNEADA
For B2, in assay [5], the binding entry was “binds”.

B3: DONSON (Downstream neighbor of Son), endogenous in Xenopus laevis egg extract (protein, UniProt Q5U4U4 1-579)
chain: MAELLPGYSPSFKKPSEILRLSRRRSRSEASKTGLSPFSPGDVIKRVPGLRPFSPGPNKGAGVKRRNPFASLENTVCSPVKRRAETVAEYGAASLEPRALSAVRPSCLGQDSPEPPQFNSVEDVIWGDPLAADADPLVKTESPEKPAPACEIPKGSVTFPADWSLKTRLLFTSSHSFSWADHLKAQEEAQGLVMQCRATAVNLPHSIQEPKLSTDLRCAFQQSLVHWIHPSLPWVQLFPRIGVDRKMAGKNTPWSQDESLQQVLMSEWALSFTSLYNLLKAKLCPYFYVCTYQFTVLFRAAGLAGSDVITAVMSPTTRGLREAMKNEGITFSQPLVEDDTGKKQKKPEAASQGDINPEKENGTAEADEASDESDEDESFSWLEEMGVEDKIKKPDSISIKLRKEKNEVKLDHKPESVVLVKGTNTFTLLNFLINCKSIVAAAGLQAGLPPTLLSPVAFRGATMHALKARSVNVKTRVNSGYKDQFSLEITGPIMPHSLHSLTMLLQSAQRGSFSAGLYTHEPTAVFNTPIHSQAVKEISADLQNCGLHPCTVEQLTQVNELGKLSLRHLEMTDYRYTWK
On to B3, for which the binding result in assay [6] is listed as “binds”.

B4: DONSON (Downstream neighbor of Son), endogenous in Xenopus laevis egg extract, Q5U4U4 1-579 (protein)
chain: B3 chain
Consider B4, for which the binding result in assay [7] is on record as “binds”.

For the origin of these results see PMC7616792, “The structural mechanism of dimeric DONSON in replicative helicase activation” (Molecular cell, 2023).
